Measured data: PubChem BioAssay AID1259271 (Sanger Institute, 2017)
In all, the deposit lists 160 reagents; this is a part drawn at random. 124 of them (78%) count as active. 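Each row is one of four siRNAs per gene; gene-level confirmation, requiring two siRNAs in several cell lines, is not included.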 Entries without a mark were called inactive. Reagents against one gene are numbered here. Further read-outs or replicates are left out here. The record does not give: the amount of reagent, the time to read-out.

- Assay: 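Follow-up check of kinase genes for lethal pairing with a drug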 (follow-up of hits)
- Cells: RKO colorectal cancer cells
- Reagents: single siRNA against human genes
- Conditions: anchor drug added to each siRNA well, cetuximab 5 µg/ml, trametinib 10 nM or BYL719 1 µM, compared with DMSO vehicle; exposure length not given
- Read-out: 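Synergy score for each anchor drug (trametinib 10 nM, cetuximab 5 µg/ml, BYL719 1 µM, against DMSO) and survival versus control pool 2 (non-targeting), each a replicate mean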
- Scale: synergy score with BYL719 and synergy score with cetuximab and synergy score with trametinib: higher = stronger synthetic lethality with the drug; viability, trametinib: higher = more cells surviving
- Hit rule: 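Called active if the synergy score passes 0.10 for one or more anchor drugs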
- Calls: active = synergy with at least one drug; inactive = no synergy with any drug

Gene | siRNA no. | synergy score with BYL719 | synergy score with cetuximab | synergy score with trametinib | viability, trametinib (fraction of control)
CHD4 | 1 | -0.0855 | 0.0338 | 0.0928 | 0.153
CHD4 | 2 | -0.0731 (active) | 0.0971 | 0.168 | 0.0809
CHD4 | 3 | 0.0952 (active) | 0.187 | 0.169 | 0.251
CHD4 | 4 | 0.0281 (active) | 0.243 | 0.226 | 0.32
MARK3 | 1 | -0.00368 | 0.0527 | 0.00175 | 0.484
MARK3 | 2 | 0.0456 | 0.086 | 0.00538 | 0.464
MARK3 | 3 | -0.116 (active) | 0.12 | 0.067 | 0.352
MARK3 | 4 | -0.0457 (active) | 0.172 | 0.159 | 0.311
GRK5 | 1 | -0.0897 (active) | -0.0247 | 0.16 | 0.4
GRK5 | 2 | -0.0312 (active) | 0.208 | 0.0637 | 0.496
GRK5 | 3 | -0.0544 (active) | -0.00378 | 0.186 | 0.374
GRK5 | 4 | -0.032 (active) | 0.122 | 0.223 | 0.336
CAMK2N1 | 1 | -0.0835 | -0.0396 | 0.0823 | 0.477
CAMK2N1 | 2 | 0.0505 | 0.0435 | -0.124 | 0.684
CAMK2N1 | 3 | 0.0402 (active) | 0.0514 | 0.243 | 0.313
CAMK2N1 | 4 | -0.15 | -0.0125 | 0.0191 | 0.338
IKBKB | 1 | 0.0484 (active) | 0.18 | 0.133 | 0.225
IKBKB | 2 | 0.0708 (active) | 0.32 | 0.167 | 0.392
IKBKB | 3 | -0.0678 | -0.0746 | -0.0332 | 0.593
IKBKB | 4 | 0 (active) | -0.0503 | 0.197 | 0.224
NR2F2 | 1 | -0.091 (active) | 0.18 | 0.208 | 0.286
NR2F2 | 2 | 0.0396 (active) | 0.339 | 0.111 | 0.448
NR2F2 | 3 | -0.19 | -0.00208 | -0.0789 | 0.474
NR2F2 | 4 | -0.0358 (active) | -0.107 | 0.118 | 0.301
ACVR1 | 1 | -0.139 | -0.0144 | 0.0635 | 0.471
ACVR1 | 2 | -0.0812 | -0.177 | 0.0751 | 0.334
ACVR1 | 3 | -0.234 | -0.0449 | -0.094 | 0.654
ACVR1 | 4 | -0.207 | 0.0324 | 0.0543 | 0.325
HUNK | 1 | -0.0981 | 0.0583 | 0.0564 | 0.503
HUNK | 2 | -0.127 (active) | 0.0542 | 0.16 | 0.21
HUNK | 3 | 0.0556 (active) | 0.087 | 0.292 | 0.267
HUNK | 4 | 0.00835 (active) | 0.211 | 0.282 | 0.252
COASY | 1 | 0.308 (active) | 0.336 | 0.271 | 0.289
COASY | 2 | 0.269 (active) | 0.115 | 0.285 | 0.274
COASY | 3 | 0.0685 (active) | 0.114 | 0.114 | 0.18
COASY | 4 | 0.0178 (active) | 0.167 | 0.257 | 0.238
IRAK3 | 1 | -0.12 (active) | -0.146 | 0.131 | 0.15
IRAK3 | 2 | -0.15 | -0.0554 | 0.0567 | 0.312
IRAK3 | 3 | -0.0135 (active) | -0.00485 | 0.105 | 0.27
IRAK3 | 4 | 0.015 (active) | -0.0542 | 0.128 | 0.348
SF3B1 | 1 | -0.0374 | 0.0207 | 0.0462 | 0.0576
SF3B1 | 2 | 0.0141 | 0.0505 | 0.0624 | 0.0578
SF3B1 | 3 | 0.0837 | 0.051 | 0.0939 | 0.0689
SF3B1 | 4 | 0.00255 | 0.0148 | 0.0152 | 0.09
MPP3 | 1 | -0.0195 (active) | 0.0251 | 0.188 | 0.371
MPP3 | 2 | 0.203 (active) | 0.337 | 0.364 | 0.195
MPP3 | 3 | 0.117 (active) | 0.082 | 0.26 | 0.119
MPP3 | 4 | 0.207 (active) | 0.449 | 0.348 | 0.211
BMPR2 | 1 | -0.00612 (active) | 0.125 | 0.154 | 0.406
BMPR2 | 2 | 0.0942 (active) | 0.293 | 0.28 | 0.28
BMPR2 | 3 | -0.119 (active) | 0.0257 | 0.137 | 0.422
BMPR2 | 4 | -0.275 | 0.0178 | -0.00509 | 0.565

An excerpt of the results above:
Gene | siRNA no. | synergy score with BYL719 | synergy score with cetuximab | synergy score with trametinib | viability, trametinib (fraction of control)
IRAK3 | 1 | -0.12 (active) | -0.146 | 0.131 | 0.15
IRAK3 | 2 | -0.15 | -0.0554 | 0.0567 | 0.312
IRAK3 | 3 | -0.0135 (active) | -0.00485 | 0.105 | 0.27
IRAK3 | 4 | 0.015 (active) | -0.0542 | 0.128 | 0.348
SF3B1 | 1 | -0.0374 | 0.0207 | 0.0462 | 0.0576
SF3B1 | 2 | 0.0141 | 0.0505 | 0.0624 | 0.0578
SF3B1 | 3 | 0.0837 | 0.051 | 0.0939 | 0.0689
SF3B1 | 4 | 0.00255 | 0.0148 | 0.0152 | 0.09
